Data taken from PMC5113665 (Angewandte Chemie (International Ed. in English), 2016).

B1: pT68CHK2: ligation product, residues 63–538 with a phosphorylated Thr‐68 and a Ser‐73 to Cys mutation (protein)
chain: LETVSTQELYCIPEDQEPEDQEPEEPTPAPWARLWALQDGFANLECVNDNYWFGRDKSCEYCFDEPLLKRTDKYRTYSKKHFRIFREVGPKNSYIAYIEDHSGNGTFVNTELVGKGKRRPLNNNSEIALSLSRNKVFVFFDLTVDDQSVYPKALRDEYIMSKTLGSGACGEVKLAFERKTCKKVAIKIISKRKFAIGSAREADPALNVETEIEILKKLNHPCIIKIKNFFDAEDYYIVLELMEGGELFDKVVGNKRLKEATCKLYFYQMLLAVQYLHENGIIHRDLKPENVLLSSQEEDCLIKITDFGHSKILGETSLMRTLCGTPTYLAPEVLVSVGTAGYNRAVDCWSLGVILFICLSGYPPFSEHRTQVSLKDQITSGKYNFIPEVWAEVSEKALDLVKKLLVVDPKARFTTEEALRHPWLQDEDMKRKFQDLLSEENESTALPQVLAQPSTSRKRPREGEAEGAETTKRPAV
modifications: phosphorylated Thr-68 (pT in LETVSpTQELY)
notes: ligation product, residues 63–538 with a phosphorylated Thr‐68 and a Ser‐73 to Cys mutation
B2: CHK2(73‐538)S73C: expressed, unligated truncated CHK2 protein with N-terminal cysteine (protein)
chain: CIPEDQEPEDQEPEEPTPAPWARLWALQDGFANLECVNDNYWFGRDKSCEYCFDEPLLKRTDKYRTYSKKHFRIFREVGPKNSYIAYIEDHSGNGTFVNTELVGKGKRRPLNNNSEIALSLSRNKVFVFFDLTVDDQSVYPKALRDEYIMSKTLGSGACGEVKLAFERKTCKKVAIKIISKRKFAIGSAREADPALNVETEIEILKKLNHPCIIKIKNFFDAEDYYIVLELMEGGELFDKVVGNKRLKEATCKLYFYQMLLAVQYLHENGIIHRDLKPENVLLSSQEEDCLIKITDFGHSKILGETSLMRTLCGTPTYLAPEVLVSVGTAGYNRAVDCWSLGVILFICLSGYPPFSEHRTQVSLKDQITSGKYNFIPEVWAEVSEKALDLVKKLLVVDPKARFTTEEALRHPWLQDEDMKRKFQDLLSEENESTALPQVLAQPSTSRKRPREGEAEGAETTKRPAV

Tested on: CHK2
Assay: Gel-filtration profile (dimerization) of CHK2 proteins
Parameters: species or system human
Conditions: Superdex S200 10/300 GL, 20 mM Tris-HCl, 150 mM NaCl, 0.5 mM TCEP

Row | Molecule | dimerization (pH 8.0, 0.5 mL min-1) | dimerization (pH 8.0, 0.5 mL min-1, listed as Phosphorylated CHK2 protein)
1 | B1 | dimerization | dimerized
2 | B2 | small amount of dimerization | –
